Laboratory results taken from patent US5238920A, “Pulmonary surfactant protein fragments” (Abbott Laboratories, priority 1989, dated 1993).
“And” between values parts separate entries of the source, which are not always exact repeats. Identical values can stand only once. At least one peptide structure holds a part that was inferred or is arguable (an end, a ring closure or a residue). Residues, ends and D or L forms follow the SMILES beside them.

Assays:
Assay type in all cases: physicochemical
[1] = Relative surface activity by dilution studies on modified Wilhelmy balance-Langmuir trough; conditions: for biophysical surface activity compared with the entire SP-B sequence SP-B (1-78) (in words): comment on Table 4 dilution studies; for Lowest Peptide (Protein) Concentration At Which Surface Active Criteria Are Met: criterion: minimum dynamic surface tension less than 5 dynes/cm for each of seven consecutive cycles, phospholipid 25 mg/ml, 675 ug applied
Protocol: For the purpose of this comparison "surface activity" is defined as follows: For any given peptide concentration, the admixture is required to result in a minimum dynamic surface tension of less than 5 dynes/cm for each of seven consecutive expansion/compression cycles.
The admixtures were diluted with the synthetic lipid mixture as described in Example 4, so as to maintain the lipid concentration in all cases at 25 mg/ml. For these studies a standard volume of 27 ul, corresponding to a total phospholipid mass of 675 ug, was applied to the Langmuir Trough with maximum dimensions of 445 sq. cm.

[2] = Adsorption (surface tension lowering), modified Wilhelmy surface balance; conditions: equilibrium adsorption after three (3) minutes spreading time; peptide 0.5 mg/ml (2% of solids)
Protocol: A procedures similar to that described by Notter, et al., Petaitric Res. 16, 515-519, (1982) was employed to determined the absorption rate in the absence of diffusion resistance. The modified Wilhelmy surface balance as described above was used. However, instead of using a Langmuir trough a round Teflon dish (5.1 cm diameter) was employed. The subphase, 70 ml of 0.15 M NaCl, was allowed to equilibrate to 37° C. in the incubator and was continuously stirred with a Teflon coated magnetic stirrer. An aliquot of the peptide/lipid fragment admixture containing 5 mg of total phospholipid was dispersed in 10 ml of 0.15 M NaCl by vortexing for 10 seconds. This dispersion was then added to the saline subphase. Surface tension lowering was monitoring using a strip chart recorder connected to the electro balance output.

[3] = Dynamic surface tension versus compressed surface area, modified Wilhelmy balance-Langmuir trough; conditions: 675 ug phospholipid on trough at 445 sq. cm, peptide 0.5 mg/ml (2% of solids) in DPPC:PG:PA lipids; for Surface tension, Maximum: maximum recorded during seven complete cycles; for Surface tension, Minimum: minimum recorded during seven complete cycles
Excerpt: The dynamic surface tension lowering properties of the peptide/lipid admixtures were studied using a modified Wilhelmy surface Balance (Langmuir Trough). The instrument consists of an all Teflon trough and movable Teflon ribbon (dam) barrier system which completely contains and defines a variable surface area. Surface area was varied through the use of a constant rate reversible 3-phase motor to drive the Teflon barrier. A Cahn 2000 electrobalance (Cahn Instruments, Cerittos, Calif.) with a sandblasted 1 cm platinum plate and stainless steel hangdown wire was employed to determine the surface tension at the liquid-air interface. The entire apparatus was situated in a thermostated incubator set at 45° C. Surface area-surface tension measurements were made by adding 950 ml of 0.15 M NaCl to the trough. Subphase temperature was controlled during the measurements at 36°-38° C.
For each experiment 27 ul of peptide/lipid admixture was applied in a random array of 13 (.perspectiveto.2 ul) droplets to the surface of the temperature controlled subphase and allowed to spread spontaneously for 3 minutes. (The 27 ul application corresponds to 675 ug of phospholipid). The trough surface area was then cycled from a maximum (445 sq. cm) to a minimum (178 sq. cm) surface area and black to maximum at a cycling rate of 3 cycles/min (compression ratio 2.5:1). The dynamic surface tension vs surface area was recorded for 7 complete compression-expansion cycles for each application.

[4] = Pulsating bubble surfactometer (PBS), surface tension at air-aqueous interface; conditions: for Minimum Surface Tension: after 5 minutes pulsation (100 cycles), 20 cycles/minute, 37 C, 1 mg/ml phospholipid in 0.15 M NaCl, peptide 2% of phospholipids; for ability to facilitate low surface tension values / surface tension lowering capacity of the carrier lipids (in words): comment on Table 3 data
Protocol: The Pulsating Bubble Surfactometer (PBS). The PBS equipment (Electrtonetics, Buffalo, N.Y.) used was essentially equivalent to that described in detail by G. Enhorning, J. Appld, Physiol. 43, 198-203, (1977). Recordings were made of the pressure gradient across the wall of a small air bubble, communicating with ambient air by means of a narrow chimney stack, but otherwise entirely surrounded by a 40 ul volume of the peptide/lipid admixture. The admixture concentration employed for these studies was 1 mg/ml total phospholipid (0.02 mg/ml total peptide) and the diluent was 0.15 M naCl. Immediately prior to loading the sample chamber, the diluted samples were sonicated for 15 seconds to remove any gas nuclei.
The pressure drop across the air-water interface was measured during pulsation by a pressure transducer, and the corresponding surface tension determined through the application of Young's law and the Laplace equation. Measurements were all made at 37° C. and the bubble pulsed at 20 cycles/minute to render respectively a maximum (1.1 mm) and a minimum (0.8 mm) bubble diameter. (This compression/expansion corresponds to a 50% change in the surface area of the air-water interface).

Row | SMILES | biophysical surface activity compared with the entire SP-B sequence SP-B (1-78) (in words) [1] | Lowest Peptide (Protein) Concentration At Which Surface Active Criteria Are Met [1] | Adsorption [2] | Surface tension, Maximum [3] | Surface tension, Minimum [3] | Minimum Surface Tension [4] | ability to facilitate low surface tension values / surface tension lowering capacity of the carrier lipids (in words) [4]
1 | CC[C@H](C)[C@H](NC(=O)[C@H](CCCNC(=N)N)NC(=O)[C@H](CCCCN)NC(=O)[C@@H](NC(=O)[C@H](CC(C)C)NC(=O)[C@H](C)NC(=O)[C@H](CCCNC(=N)N)NC(=O)[C@H](CS)NC(=O)[C@H](CC(C)C)NC(=O)[C@H](Cc1c[nH]c2ccccc12)NC(=O)[C@H](CS)NC(=O)[C@H](Cc1ccc(O)cc1)NC(=O)[C@@H]1CCCN1C(=O)[C@H](CC(C)C)NC(=O)[C@@H]1CCCN1C(=O)[C@@H](NC(=O)[C@@H]1CCCN1C(=O)[C@@H](N)Cc1ccccc1)[C@@H](C)CC)[C@@H](C)CC)C(=O)N[C@@H](CCC(N)=O)C(=O)N[C@@H](C)C(=O)O [SP-B(1-20)] (H-FPIPLPYCWLCRALIKRIQA-OH) | equivalent to or better than | 5.0 ug/ml and 1.9 uM | 49.5 dynes/cm | 52.5 dynes/cm | < 1 dynes/cm | 3.4 ± 0.68 dyne/cm | particularly effective
2 | CC[C@H](C)[C@H](NC(=O)[C@@H](NC(=O)[C@H](CO)NC(=O)[C@@H](N)Cc1ccc(O)cc1)C(C)C)C(=O)N[C@@H](CC(C)C)C(=O)N[C@@H](CC(C)C)C(=O)N[C@@H](CC(=O)O)C(=O)N[C@H](C(=O)N[C@@H](CC(C)C)C(=O)N[C@@H](CC(C)C)C(=O)NCC(=O)N[C@@H](CCCNC(=N)N)C(=O)N[C@@H](CCSC)C(=O)N[C@@H](CC(C)C)C(=O)N1CCC[C@H]1C(=O)N[C@@H](CCC(N)=O)C(=O)N[C@@H](CC(C)C)C(=O)N[C@H](C(=O)N[C@@H](CS)C(=O)N[C@@H](CCCNC(=N)N)C(=O)N[C@@H](CC(C)C)C(=O)N[C@H](C(=O)N[C@@H](CC(C)C)C(=O)N[C@@H](CCCNC(=N)N)C(=O)N[C@@H](CS)C(=O)N[C@@H](CO)C(=O)O)C(C)C)C(C)C)[C@@H](C)O [SP-B(53-78)] (H-YSVILLDTLLGRMLPQLVCRLVLRCS-OH) | equivalent to or better than | 3.5 ug/ml and 1.2 uM | 42.5 dynes/cm | 47.5 dynes/cm | < 1 dynes/cm | 1.5 ± 0.63 dyne/cm | particularly effective
